Test results published in PMC5462965.
No constants are given. Whether binding was seen depends on the method and setting. Binding seen in cells or lysates may run through a third protein. Some results given as binding are weak or reduced against the parent protein; the word gives no strength. For part of these data: Where a sequence is shown, tags or fusion partners need not be part of it. Blank lines part the entries; values can stand above or below the binder they belong to.

Assays:
[1] = target: T1, Flag-NEURL1 (human) (UniProt O76050); test: co-IP; lysates of 293T cells overexpressing His-neuritin and Flag-NEURL1; IP with anti-Flag and blot with anti-His, and the reverse; lysis and wash buffer 150 mM NaCl, 1% Triton-X 100, 0.5% sodium deoxycholate, Tris-HCl pH 7.5; pcDNA3.1 empty vector as control
T1 sequence: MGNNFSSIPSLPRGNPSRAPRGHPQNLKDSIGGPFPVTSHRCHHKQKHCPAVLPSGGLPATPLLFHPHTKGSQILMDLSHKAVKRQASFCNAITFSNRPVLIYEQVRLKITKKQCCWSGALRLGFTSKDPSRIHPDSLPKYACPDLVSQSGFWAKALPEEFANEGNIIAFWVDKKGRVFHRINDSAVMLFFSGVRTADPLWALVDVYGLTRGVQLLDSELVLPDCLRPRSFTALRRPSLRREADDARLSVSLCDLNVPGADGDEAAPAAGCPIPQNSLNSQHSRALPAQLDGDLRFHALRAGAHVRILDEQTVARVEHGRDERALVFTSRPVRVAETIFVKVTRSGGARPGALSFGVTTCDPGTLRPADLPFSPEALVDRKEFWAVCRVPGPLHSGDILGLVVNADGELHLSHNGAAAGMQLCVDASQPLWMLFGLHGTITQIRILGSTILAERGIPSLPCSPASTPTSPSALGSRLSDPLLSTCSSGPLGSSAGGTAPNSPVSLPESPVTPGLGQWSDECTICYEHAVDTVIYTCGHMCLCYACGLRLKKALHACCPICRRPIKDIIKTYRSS

[2] = target: T2, endogenous NEURL1 of SH-SY5Y cells (human (endogenous in SH-SY5Y)) (UniProt O76050); test: co-IP; endogenous proteins of SH-SY5Y cells; IP with anti-NEURL1, blot for neuritin; IgG as control
T2 sequence: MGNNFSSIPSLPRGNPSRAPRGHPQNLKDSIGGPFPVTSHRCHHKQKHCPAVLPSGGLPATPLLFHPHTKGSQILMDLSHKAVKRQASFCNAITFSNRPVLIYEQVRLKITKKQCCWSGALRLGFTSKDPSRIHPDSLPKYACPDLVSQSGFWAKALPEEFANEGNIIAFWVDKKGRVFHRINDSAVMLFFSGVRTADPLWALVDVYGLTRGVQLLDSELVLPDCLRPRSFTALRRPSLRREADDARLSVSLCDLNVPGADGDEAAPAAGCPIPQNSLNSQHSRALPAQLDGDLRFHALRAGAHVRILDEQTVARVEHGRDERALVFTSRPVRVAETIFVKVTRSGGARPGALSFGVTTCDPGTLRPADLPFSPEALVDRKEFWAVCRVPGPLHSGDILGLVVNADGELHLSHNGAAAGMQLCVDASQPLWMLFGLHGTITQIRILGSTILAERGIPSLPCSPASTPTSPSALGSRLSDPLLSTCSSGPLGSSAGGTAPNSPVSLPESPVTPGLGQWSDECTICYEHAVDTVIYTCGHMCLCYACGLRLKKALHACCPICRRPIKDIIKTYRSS

[3] = target: T3, His-neuritin (human) (UniProt Q9NPD7); test: co-IP; lysates of 293T cells overexpressing His-neuritin and Flag-NEURL1; IP with anti-Flag and blot with anti-His, and the reverse; lysis and wash buffer 150 mM NaCl, 1% Triton-X 100, 0.5% sodium deoxycholate, Tris-HCl pH 7.5; pcDNA3.1 empty vector as control
T3 sequence: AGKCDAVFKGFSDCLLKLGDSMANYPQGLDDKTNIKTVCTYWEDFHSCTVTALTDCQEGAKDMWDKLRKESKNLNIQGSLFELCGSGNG

binding [1]: binds
B1: His-neuritin (protein, UniProt Q9NPD7 28-116)
chain: AGKCDAVFKGFSDCLLKLGDSMANYPQGLDDKTNIKTVCTYWEDFHSCTVTALTDCQEGAKDMWDKLRKESKNLNIQGSLFELCGSGNG

binding [2]: binds
B2: endogenous neuritin of SH-SY5Y cells (protein, UniProt Q9NPD7 28-116)
chain: AGKCDAVFKGFSDCLLKLGDSMANYPQGLDDKTNIKTVCTYWEDFHSCTVTALTDCQEGAKDMWDKLRKESKNLNIQGSLFELCGSGNG

binding [3]: binds
B3: Flag-NEURL1 (protein, UniProt O76050 1-574)
chain: MGNNFSSIPSLPRGNPSRAPRGHPQNLKDSIGGPFPVTSHRCHHKQKHCPAVLPSGGLPATPLLFHPHTKGSQILMDLSHKAVKRQASFCNAITFSNRPVLIYEQVRLKITKKQCCWSGALRLGFTSKDPSRIHPDSLPKYACPDLVSQSGFWAKALPEEFANEGNIIAFWVDKKGRVFHRINDSAVMLFFSGVRTADPLWALVDVYGLTRGVQLLDSELVLPDCLRPRSFTALRRPSLRREADDARLSVSLCDLNVPGADGDEAAPAAGCPIPQNSLNSQHSRALPAQLDGDLRFHALRAGAHVRILDEQTVARVEHGRDERALVFTSRPVRVAETIFVKVTRSGGARPGALSFGVTTCDPGTLRPADLPFSPEALVDRKEFWAVCRVPGPLHSGDILGLVVNADGELHLSHNGAAAGMQLCVDASQPLWMLFGLHGTITQIRILGSTILAERGIPSLPCSPASTPTSPSALGSRLSDPLLSTCSSGPLGSSAGGTAPNSPVSLPESPVTPGLGQWSDECTICYEHAVDTVIYTCGHMCLCYACGLRLKKALHACCPICRRPIKDIIKTYRSS
